No constants are given. Whether binding was seen depends on the method and setting. Binding seen in cells or lysates may run through a third protein. Some binding calls cover weakened binding; strength is not graded here. For some assays here: Sequences can lack the tags named with a protein.
Columns and labels:
[1] = target: T1, full-length HA-ERG (HA-tagged ERG-WT) (UniProt P11308); experiment: co-IP
T1 sequence: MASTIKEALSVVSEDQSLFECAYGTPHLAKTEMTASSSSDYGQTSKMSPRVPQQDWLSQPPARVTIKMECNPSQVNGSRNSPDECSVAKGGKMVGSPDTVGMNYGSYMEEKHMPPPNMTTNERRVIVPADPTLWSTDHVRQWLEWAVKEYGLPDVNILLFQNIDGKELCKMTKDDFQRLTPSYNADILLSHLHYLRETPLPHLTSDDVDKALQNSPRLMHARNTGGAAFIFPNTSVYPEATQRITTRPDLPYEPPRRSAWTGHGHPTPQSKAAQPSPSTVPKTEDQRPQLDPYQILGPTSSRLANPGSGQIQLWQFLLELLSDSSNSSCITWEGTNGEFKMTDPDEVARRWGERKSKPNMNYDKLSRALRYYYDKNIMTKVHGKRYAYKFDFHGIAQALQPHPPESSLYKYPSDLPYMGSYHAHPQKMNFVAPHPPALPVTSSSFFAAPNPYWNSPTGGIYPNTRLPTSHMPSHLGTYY

Protein sequences, listed by entry. Tags and fused reporters are not part of them.
UniProt P50549, whole entry: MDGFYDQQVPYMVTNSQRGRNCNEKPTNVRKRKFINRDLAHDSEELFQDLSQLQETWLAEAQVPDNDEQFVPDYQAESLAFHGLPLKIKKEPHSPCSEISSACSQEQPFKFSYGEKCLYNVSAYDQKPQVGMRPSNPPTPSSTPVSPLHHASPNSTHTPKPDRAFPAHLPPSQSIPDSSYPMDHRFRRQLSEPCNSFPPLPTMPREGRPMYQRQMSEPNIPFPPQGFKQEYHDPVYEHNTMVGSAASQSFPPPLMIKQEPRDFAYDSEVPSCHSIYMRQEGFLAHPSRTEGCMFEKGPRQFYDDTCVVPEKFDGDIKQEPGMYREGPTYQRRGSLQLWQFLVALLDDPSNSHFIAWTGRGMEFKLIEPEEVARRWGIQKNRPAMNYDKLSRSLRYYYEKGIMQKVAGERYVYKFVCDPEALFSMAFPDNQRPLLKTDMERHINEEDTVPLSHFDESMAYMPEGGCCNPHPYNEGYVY
UniProt P43268, whole entry: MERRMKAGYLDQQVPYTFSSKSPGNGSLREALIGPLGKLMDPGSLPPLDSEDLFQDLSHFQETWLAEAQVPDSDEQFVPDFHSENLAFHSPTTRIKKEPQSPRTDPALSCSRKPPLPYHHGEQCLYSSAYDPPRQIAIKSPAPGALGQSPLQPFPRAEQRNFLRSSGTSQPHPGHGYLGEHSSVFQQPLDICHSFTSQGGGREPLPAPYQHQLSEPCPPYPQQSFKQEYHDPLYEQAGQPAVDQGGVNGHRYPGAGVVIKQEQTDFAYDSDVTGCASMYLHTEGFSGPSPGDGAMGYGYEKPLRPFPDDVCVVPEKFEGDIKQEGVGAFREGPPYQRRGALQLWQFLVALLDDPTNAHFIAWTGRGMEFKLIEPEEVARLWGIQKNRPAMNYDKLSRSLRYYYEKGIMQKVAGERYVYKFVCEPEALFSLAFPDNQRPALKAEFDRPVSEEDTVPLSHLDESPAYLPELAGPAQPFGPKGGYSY
UniProt P41161, whole entry: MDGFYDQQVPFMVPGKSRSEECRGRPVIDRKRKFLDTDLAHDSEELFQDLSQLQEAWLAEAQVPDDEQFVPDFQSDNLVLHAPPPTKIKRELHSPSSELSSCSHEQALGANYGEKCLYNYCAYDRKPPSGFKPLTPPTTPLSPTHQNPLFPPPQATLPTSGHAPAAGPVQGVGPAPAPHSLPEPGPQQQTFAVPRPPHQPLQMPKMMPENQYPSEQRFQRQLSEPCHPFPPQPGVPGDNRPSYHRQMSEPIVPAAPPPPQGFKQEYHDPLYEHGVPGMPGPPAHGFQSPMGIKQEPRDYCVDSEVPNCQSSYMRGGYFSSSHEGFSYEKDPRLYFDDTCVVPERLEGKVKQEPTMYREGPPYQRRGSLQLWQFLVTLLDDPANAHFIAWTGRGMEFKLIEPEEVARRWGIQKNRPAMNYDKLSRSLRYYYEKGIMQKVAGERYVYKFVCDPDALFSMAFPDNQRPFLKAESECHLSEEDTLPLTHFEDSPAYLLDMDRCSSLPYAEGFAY
UniProt P04150, whole entry: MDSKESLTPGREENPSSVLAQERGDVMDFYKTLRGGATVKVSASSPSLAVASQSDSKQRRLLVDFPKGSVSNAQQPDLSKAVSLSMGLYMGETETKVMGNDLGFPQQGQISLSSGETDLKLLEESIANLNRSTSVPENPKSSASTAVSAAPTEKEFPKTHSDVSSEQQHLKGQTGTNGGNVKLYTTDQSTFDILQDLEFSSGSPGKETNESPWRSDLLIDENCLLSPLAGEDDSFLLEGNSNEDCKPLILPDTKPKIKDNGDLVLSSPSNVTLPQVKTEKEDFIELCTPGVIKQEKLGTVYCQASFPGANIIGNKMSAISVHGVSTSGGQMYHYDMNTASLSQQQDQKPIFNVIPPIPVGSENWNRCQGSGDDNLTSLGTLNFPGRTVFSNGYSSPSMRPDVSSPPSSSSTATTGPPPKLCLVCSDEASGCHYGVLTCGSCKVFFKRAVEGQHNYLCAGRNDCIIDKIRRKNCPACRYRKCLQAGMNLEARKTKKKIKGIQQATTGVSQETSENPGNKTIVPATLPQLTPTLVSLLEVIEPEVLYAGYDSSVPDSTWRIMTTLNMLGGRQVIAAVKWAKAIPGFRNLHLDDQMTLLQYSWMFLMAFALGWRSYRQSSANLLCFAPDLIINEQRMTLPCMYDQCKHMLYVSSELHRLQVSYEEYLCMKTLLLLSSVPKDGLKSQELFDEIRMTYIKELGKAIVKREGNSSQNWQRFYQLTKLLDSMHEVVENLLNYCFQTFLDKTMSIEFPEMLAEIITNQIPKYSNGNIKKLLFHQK

Gluc1-ETV1 = Gluc1-ETV1 (UniProt P50549); experiment: split reporter
Gluc1-ETV4 = Gluc1-ETV4 (UniProt P43268); experiment: split reporter
[2] = target: T2, Gluc1-ERG (ERG fused to the amino-terminal fragment of Gaussia luciferase) (UniProt P11308); experiment: split reporter
T2 sequence: T1 sequence

Gluc1-ETV5 = Gluc1-ETV5 (UniProt P41161); experiment: split reporter
[3] = target: ETV4, endogenous in PC3 cells (human (endogenous in PC3)) (UniProt P43268); experiment: co-IP
[4] = target: T3, ERG ectopically expressed in HEK293T cells (plasmid encoding ERG) (UniProt P11308); experiment: co-IP
T3 sequence: T1 sequence

| binding [1] | binding (Gluc1-ETV1) | binding (Gluc1-ETV4) | binding [2] | binding (Gluc1-ETV5) | binding [3] | binding [4] | Substance |
| --- | --- | --- | --- | --- | --- | --- | --- |
| binds | binds | binds | binds | binds |  |  | GR-Gluc2 (full-length glucocorticoid receptor fused to the carboxyl-terminal fragment of Gaussia luciferase) (from UniProt P04150 1-777) |
| binds |  |  |  |  | binds | binds | endogenous glucocorticoid receptor (GR) (from UniProt P04150 1-777) |

— paper doi:10.1101/2025.01.17.633582
